Assay results taken from article PMC11900821.
These are yes or no findings as the source states them, for the method shown. In cells and extracts the contact can be indirect. Some entries that bind do so weakly or less than the wild type.

Sequences of proteins named here, by UniProt entry; tags and fusion partners are left off.
UniProt P40763: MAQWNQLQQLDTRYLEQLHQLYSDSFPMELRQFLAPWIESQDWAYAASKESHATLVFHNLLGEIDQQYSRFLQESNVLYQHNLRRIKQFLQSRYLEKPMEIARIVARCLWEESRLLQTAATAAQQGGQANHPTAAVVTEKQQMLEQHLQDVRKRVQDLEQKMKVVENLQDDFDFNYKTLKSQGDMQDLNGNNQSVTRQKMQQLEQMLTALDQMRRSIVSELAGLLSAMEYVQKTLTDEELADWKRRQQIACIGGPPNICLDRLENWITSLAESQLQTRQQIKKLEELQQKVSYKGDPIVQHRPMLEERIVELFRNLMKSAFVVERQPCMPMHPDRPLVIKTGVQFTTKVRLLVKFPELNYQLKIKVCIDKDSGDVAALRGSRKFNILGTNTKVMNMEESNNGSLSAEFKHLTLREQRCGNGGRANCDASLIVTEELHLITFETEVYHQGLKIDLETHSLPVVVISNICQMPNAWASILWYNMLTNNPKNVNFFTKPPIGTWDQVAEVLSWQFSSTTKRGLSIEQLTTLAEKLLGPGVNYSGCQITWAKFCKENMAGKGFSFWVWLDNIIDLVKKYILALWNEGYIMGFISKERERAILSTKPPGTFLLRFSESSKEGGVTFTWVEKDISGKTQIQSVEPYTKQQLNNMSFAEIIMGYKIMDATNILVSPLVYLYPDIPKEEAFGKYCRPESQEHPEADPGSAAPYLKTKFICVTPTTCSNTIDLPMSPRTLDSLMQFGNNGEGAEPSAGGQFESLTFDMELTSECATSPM

Molecular target: STAT3 in MDA-MB-231 and SUM159 cells (human (endogenous in MDA-MB-231 and SUM159)) (UniProt P40763)
Assay: co-IP; lysates of MDA-MB-231 and SUM159 cells; primary antibody or control IgG with protein A/G agarose beads overnight, Western blot of the precipitates

binding: binds
B1: DIRAS2 (protein, UniProt Q96HU8 1-199)
chain: MPEQSNDYRVAVFGAGGVGKSSLVLRFVKGTFRESYIPTVEDTYRQVISCDKSICTLQITDTTGSHQFPAMQRLSISKGHAFILVYSITSRQSLEELKPIYEQICEIKGDVESIPIMLVGNKCDESPSREVQSSEAEALARTWKCAFMETSAKLNHNVKELFQELLNLEKRRTVSLQIDGKKSKQQKRKEKLKGKCVIM
